Test results as given in patent publication US7228238B2, “Algorithmic design of peptides for binding and/or modulation of the functions of receptors and/or other proteins” (Cielo Institute, Inc., priority 2000, dated 2007).
Some results were stated once for a whole list of compounds, not compound by compound.

By UniProt entry, the sequences of proteins in these tests, tags left out.
UniProt P14416, whole entry: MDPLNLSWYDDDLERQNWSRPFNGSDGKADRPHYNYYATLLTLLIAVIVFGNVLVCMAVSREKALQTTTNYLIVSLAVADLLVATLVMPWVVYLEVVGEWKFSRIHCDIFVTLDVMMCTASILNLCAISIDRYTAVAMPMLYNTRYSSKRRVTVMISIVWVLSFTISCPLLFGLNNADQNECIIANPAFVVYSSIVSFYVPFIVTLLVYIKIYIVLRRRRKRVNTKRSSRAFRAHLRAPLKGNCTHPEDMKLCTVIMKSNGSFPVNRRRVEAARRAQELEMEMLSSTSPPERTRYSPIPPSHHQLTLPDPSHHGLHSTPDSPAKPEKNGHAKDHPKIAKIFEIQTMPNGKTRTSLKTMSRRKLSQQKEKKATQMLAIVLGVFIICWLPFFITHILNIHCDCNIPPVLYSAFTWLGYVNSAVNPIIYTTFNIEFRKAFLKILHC

What was measured:
[1] = molecular target: T1, human long isoform D2DA receptor (Homo sapiens, UniProt P14416); experiment: external acidification rate (EAR) by microphysiometry, response to dopamine, D2DA receptor-transfected CHO cell system; details: peptide 1 μM, dopamine ≈1 μM
[2] = molecular target: T1, human long isoform D2DA receptor; experiment: external acidification rate (EAR) by microphysiometry, response to dopamine, D2DA receptor-transfected mouse LtK cell system; details: peptide 1 μM, dopamine ≈1 μM

Substance | ρ of one-tailed t-test paired within chamber, peptide influence on EAR response to dopamine [1] | ρ of one-tailed t-test paired within chamber, peptide influence on EAR response to dopamine [2]
H-THQAFHYCNKQCLVI-OH [SEQ ID NO:2] | > 0.05 | –
ERNRKPYRPKNKYLL [E . . . PY] | > 0.05 | < 0.0001
ERNRKPLRPKNKYLI [E . . . PL] | > 0.05 | < 0.0001
